Laboratory results: patent US6949584B2, “TNP-470 species, polymer conjugates and use thereof” (Children's Medical Center Corporation, priority 2002, dated 2005)
Some results were stated once for a whole list of compounds, not compound by compound.

Test system: BCE cells
Assay: Bovine capillary endothelial (BCE) cell proliferation assay
Settings: 72 h

Structure (SMILES): CO[C@@H]1[C@H](OC(=O)NC(=O)CCl)CC[C@]2(CO2)[C@H]1[C@@]1(C)O[C@@H]1CC=C(C)C [TNP-470, O-(chloracetyl-carbamoyl) fumagillol]
- doses with cytotoxic effect: higher than 1 μg/ml
